Reference: patent publication US8163691B2, “Compositions and methods for identifying agents which modulate PTEN function and PI-3 kinase pathways” (Indiana University Research & Research Corporation, priority 2000, dated 2012)
Entries after “also recorded” stand apart in the source; their conditions may differ. At least one compound was matched to its structure with a doubt left.

Experiments:
U87MG cells [1] = experiment: Subcutaneous U87MG tumor growth in nude mice; format: in vivo, mouse; conditions: LY294002 100 mg/kg/day x 2 weeks i.p., versus DMSO
Protocol: LY294002 was administered at a dosage of 100 mg/kg delivered daily by intraperitoneal injection in a small volume of 100% DMSO for 2 weeks, beginning 2 days after tumor implantation. […] Control mice were injected with small volume ([…]) of 100% DMSO. Daily measurement of tumor volume was performed in 3 coordinates using calipers. To determine whether PI-3 kinase exerts control over angiogenesis or the growth of glial tumors in vivo the orthotopic brain tumor model described in Example I was utilized. To assess the effect of LY294002 on angiogenesis, we treated mice with LY294002 (100 mg/kg/dose×2 weeks) or DMSO as negative control. Tumor volumes were recorded daily (FIG. 15). On day 14 we stained cryostat sections from subcutaneous tumors for CD31 (PECAM). CD31 is an endothelial marker used to measure the microvessel density of these tumors. Microvessel density was assessed from multiple digitized images of CD31-stained tumor tissue at 100× magnification (3 fields were evaluated per tumor) and counted blindly for the number of CD31 positive microvessels per unit surface area as described (Weidner et al., (1991) N. Engl. J. Med. 324:1). […] Importantly, microvessel determinations were performed on day 7 after implantation to compare angiogenic activity of tumors of similar size. […]

U87MG cells [2] = experiment: Microvessel density (CD31 positive microvessels) in subcutaneous U87MG tumor tissue; format: in vivo, mouse; conditions: LY294002 100 mg/kg/dose x 2 weeks i.p., versus DMSO
Protocol: Microvessel density (MVD) was determined for each brain tumor as described in Example I by CD31 staining, performed on cryostat sections (7 μm), fixed in acetone, blocked in 1% goat serum and stained with anti-CD31 antibody (Pharmingen, #01951D). Antibody staining was visualized with peroxidase-conjugated anti-mouse antibody and counter stained with hematoxylin. A negative control was performed on each tumor tissue stained with mouse IgG. Two sections from each tumor were scanned under low power magnification (40×) to identify areas of highest CD31 positive vessel density (Weidner et al. 1991), followed by digitization of 5 fields from this area. The digitized images representing one 100× field were counted for the number of CD31 positive vascular elements. Data was collected independently by two researchers in a blind study. The average number of microvessels per digitized 100× field was determined for 5 tumors per experimental group and analyzed by Student's t-test. […] Tumor volumes were recorded daily (FIG. 15). […] Microvessel density was assessed from multiple digitized images of CD31-stained tumor tissue at 100× magnification (3 fields were evaluated per tumor) and counted blindly for the number of CD31 positive microvessels per unit surface area as described (Weidner et al., (1991) N. Engl. J. Med. 324:1). […]

U87MG cells [3] = experiment: Orthotopic (intracranial) U87MG brain tumor model in nude mice; format: in vivo, mouse
Protocol: To determine whether PTEN exerts control over angiogenesis and/or the growth of glial tumors, an orthotopic brain tumor model was developed in which PTEN-deficient tumor cells were genetically manipulated in vitro and then stereotactically injected into the frontal cerebral cortex of nude mice. The U87MG cell line employed in these studies is derived from a patient diagnosed with glioblastoma multiforme, a highly malignant and uniformly fatal brain tumor. This tumor and other human glioblastomas and glioblastoma cell lines contain a mutation in both PTEN alleles (U87MG cells have a homozygous mutation in PTEN resulting in a null genotype). We also examined the effect of LY294002 on tumor growth and incidence of brain tumor in a nude mouse model. In a previous study, in vivo activity of LY294002 against an ovarian carcinoma was observed. […] In other words, the carcinoma was not assessed in its natural milieu. Hu et al., Clin. Can. Res. 6:880). […] In control mice treated with DMSO, 4/5 had grossly visible and/or histologically confirmed brain tumors by H & E analysis by day 25 after implantation, whereas in 0/5 mice treated with LY294002 had grossly detectable or histologic evidence of intracranial tumor when examined on day 42.

[4] = tested on: U87MG glioblastoma cells, null for PTEN; experiment: MTT viable cell assay, chemosensitivity of parental PTEN-null U87MG glioblastoma cells; format: cell-based, human
Protocol: MTT assays. Cells were seeded (6000/well) into a 96 well plate. Twenty-four hours later the growth medium was changed to 1% serum and other reagents were added as described. Treatments proceeded for 24-72 h. At each time point the MTT assay was performed. MTT (10 ul of a 5 mg/ml stock solution dissolved in RPMI medium) is added to each well of cultures 4 hours before quantitation of viable cell number by measuring absorbance in each well at 650 nm with a microplate reader (Molecular Devises,) Agents added to cell LY294002 alone or in combination with etoposide. In addition, comparison was made between U87MG cells null for PTEN and reconstituted with PTEN protein. The absorbance of each well was measured at […] with a microplate reader.

U87MG = experiment: Radiosensitivity of U87MG cells after gamma irradiation (MTT assay); format: cell-based, human; conditions: 5-10 uM LY294002; gamma irradiation 12-50 Gy single dose
tumor cells = experiment: Sensitivity to apoptosis induced by other environmental stress; format: cell-based; conditions: osmotic, endotoxic, nutritional, metabolic, hyperoxic, hypoxic, chemical, temperature, immunologic stress, heat shock
J774A.1 cells = experiment: Fcγ receptor mediated phagocytosis of IgG sensitized sRBCs by J774A.1 cells (phagocytic index); format: cell-based, mouse; conditions: for inhibition of phagocytosis of IgG coated sRBCs (phagocytic index): wortmannin 5 μg/ml, 1 h pretreatment

SMILES | subcutaneous tumor growth (U87MG cells [1]) | tumor-induced angiogenic response (U87MG cells [2]) | incidence of brain tumors (U87MG cells [3]; FIG. 17) | intracranial growth of U87MG cells (U87MG cells [3]; nude mouse model, versus DMSO) | sensitization of parental PTEN-null cells to etoposide ([4]; LY294002 (10 uM in figure legends) plus etoposide (VP16)) | sensitivity of tumor cells to etoposide, adriamycin, cytoxan, asparaginase, vincristine, busulfan and other chemotherapeutic agents ([4]; U87MG and other tumor cell lines) | effect of LY294002 alone on cell viability ([4]; at the concentration used for sensitization) | radiation sensitivity (U87MG) | sensitivity to apoptosis induced by other environmental stress (tumor cells) | inhibition of phagocytosis of sensitized sRBCs (J774A.1 cells; preincubation of the cells, concentration not given) | inhibition of phagocytosis of IgG coated sRBCs (phagocytic index) (J774A.1 cells) | inhibition of phagocytosis of IgG coated sRBCs (phagocytic index) (J774A.1 cells; listed as Wortmannin)
O=c1cc(N2CCOCC2)oc2c(-c3ccccc3)cccc12 [LY294002] | markedly suppressed | markedly suppressed the tumor-induced angiogenic response; also recorded: dramatic inhibitory effect | dramatically reduces the incidence of brain tumors | markedly suppressed the intracranial growth | as sensitive to etoposide as cells overexpressing PTEN; also recorded: dramatically shifted the dose/response curve towards a more sensitive state; also recorded: dramatically sensitizes | marked sensitivity | no effect on cell viability | dramatically increased the radiation sensitivity; also recorded: marked sensitivity to ionizing radiation | induce a sensitivity to apoptosis |  |  | 
COC[C@H]1OC(=O)c2coc3c2[C@@]1(C)C1=C(C3=O)[C@@H]2CCC(=O)[C@@]2(C)C[C@H]1OC(C)=O [wortmannin] |  |  |  |  |  |  |  |  |  | inhibit this response | significant inhibition of phagocytosis | blocks phagocytosis significantly
